The target of assay [1] is T1, Biotin-Avi-ANGPTL8 (human) (UniProt Q6UXH0).
T1 sequence (chain, biotin on the N-terminal Avi tag (BirA), bound by Europium-streptavidin donor): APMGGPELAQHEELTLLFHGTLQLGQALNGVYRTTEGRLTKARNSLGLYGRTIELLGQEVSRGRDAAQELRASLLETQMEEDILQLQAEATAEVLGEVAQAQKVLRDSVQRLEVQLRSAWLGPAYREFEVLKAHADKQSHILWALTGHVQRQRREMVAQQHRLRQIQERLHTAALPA
The assay is described as follows: TR-FRET between Europium-streptavidin on N-terminally biotinylated Avi-ANGPTL8 (co-expressed with ANGPTL3) and Alexa Fluor 647 labeled antibody at 25 nM.

Assay [2] addresses T1, Biotin-Avi-ANGPTL8 (human). The assay is described as follows: TR-FRET, Europium-streptavidin on Biotin-Avi-ANGPTL8 and Alexa Fluor 647 labeled antibody at 25 nM. For orientation: Time-resolved FRET reads energy transfer from a long-lived donor to a nearby acceptor.

These are yes or no findings as the source states them, for the method shown. Some binding calls cover weakened binding; strength is not graded here.

B1: H4H15341P (antibody, V domains shown)
VH: EVQLVESGGGLVQPGGSLRLSCAASGFTFNNHEMNWVRQAPGKGLEWVSYISSSGNTVTYADFLKGRFTISRDNAKNSLFLQMNSLRDEDTAVYYCARDHLSGTSPLSYWGQGTLVTVSS
VL: DIQMTQSPSSLSASVGDRVTITCQASQDINNYLNWFQQKPGKAPKLLIFDASNLETGVPSRFSGSGSGTDFTFTISSLQPEDIATYFCQQYENLPYTFGQGTKLEIK
As for B1, the binding entry in assay [1] and in assay [2] was “binds” throughout.

The record behind these values is patent US20250066463A1.
